The supplement of paper PMC3741180, “A Novel High Throughput Biochemical Assay to Evaluate the HuR Protein-RNA Complex Formation” (PLoS ONE, 2013)
The list shows a part of the results. This data set is noisy: repeats of one test often differ as much as different tests do. Peptide text beside a SMILES is read from it. * marks the point of attachment. For = O=C*

By UniProt entry, the sequences of proteins in these tests, tags left out.
UniProt Q15717, whole entry: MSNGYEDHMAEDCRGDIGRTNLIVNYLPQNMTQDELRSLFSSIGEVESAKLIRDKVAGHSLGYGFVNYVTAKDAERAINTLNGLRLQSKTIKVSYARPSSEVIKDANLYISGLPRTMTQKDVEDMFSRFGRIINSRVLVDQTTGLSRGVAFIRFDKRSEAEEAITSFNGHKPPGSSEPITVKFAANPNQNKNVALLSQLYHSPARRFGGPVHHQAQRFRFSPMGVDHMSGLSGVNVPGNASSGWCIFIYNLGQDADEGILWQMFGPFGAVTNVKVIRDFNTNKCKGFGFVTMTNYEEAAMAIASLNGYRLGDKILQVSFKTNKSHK

What follows are compounds tested against HuR (ELAVL1) - TNFalpha ARE RNA complex (UniProt Q15717) (assay: AlphaScreen HuR-RNA complex signal Z-score relative to positive (Bi-TNF, DMSO) controls (Z-score (SD units of positive control)); higher = more complex signal). Conditions: screen stage: primary screen; compound concentration: 25 nM.

Row | SMILES | AlphaScreen HuR-RNA complex signal Z-score
1 | CCOC(=O)C(Cc1ccc(O)cc1)NC(C)=O (centres undefined) | 2.05
2 | CC(=O)C1CCC2C3CC=C4CC(OS(=O)(=O)O)CCC4(C)C3CCC12C (centres undefined) | 1.23
3 | O=C(/C=C/c1ccc(O)c(O)c1)O[C@H](Cc1ccc(O)c(O)c1)C(=O)O | 2.06
4 | COc1cc(CNC(=O)CCCC/C=C/C(C)C)ccc1O | 0.667
5 | COC(=O)c1c(OC)cc2c(c1C)Oc1c(Cl)c(O)c(Cl)c(C)c1C(=O)O2 | 2.07
6 | CO/N=C(\C(=O)N[C@@H]1C(=O)N2C(C(=O)O)=C(COC(C)=O)CS[C@H]12)c1csc(N)n1 | -3.62
7 | CC(=O)O[C@]1(C)CC[C@@]23C[C@H]1C(C)(C)[C@@H]2CC[C@H]3C | 0.582
8 | CC(=O)Nc1c(I)cc(I)c(C(=O)O)c1I | 1.31
9 | Cc1cc2cc3c(C)cc(=O)oc3c(C)c2o1 | -0.867
10 | CC(=O)Nc1nnc(S(N)(=O)=O)s1 | 0.311
11 | COC1=CC(=O)C(O)=C/C1=C\C=C\c1ccccc1 | 1.78
12 | COc1cc(O)c2c(=O)cc(C)oc2c1CC=C(C)C | 2.12
13 | OC[C@@H](O)[C@@H](O[C@@H]1O[C@H](CO)[C@@H](O)[C@H](O)[C@H]1O)[C@H](O)[C@@H](O)CO | 1.87
14 | C[N+](C)(C)CC(O)CC(=O)[O-] (centres undefined) | 1.18
15 | Nc1ncnc2c1ncn2[C@@H]1O[C@H](CO)[C@@H](O)[C@@H]1O | -0.97
16 | O=c1[nH]cnc2nc[nH]c12 | 1.91
17 | C[C@@](Cc1ccc(O)c(O)c1)(NN)C(=O)O | 2.2
18 | CC(C)CC(NC(=O)OCC1c2ccccc2-c2ccccc21)C(=O)O (stereo in doubt) | 2.24
19 | CN(C)CCC(c1ccc(Br)cc1)c1ccccn1 (centres undefined) | 0.674
20 | Oc1c(Cl)cc(Cl)c2cccnc12 | 1.34
21 | c1ccc(-c2ccc(C(c3ccccc3)n3ccnc3)cc2)cc1 (centres undefined) | 0.724
22 | N#Cc1ccc2c(c1)N(CCCN1CCC(O)CC1)c1ccccc1S2 | 2.59

Row | SMILES | AlphaScreen HuR-RNA complex signal Z-score
23 | CCC1(c2ccccc2)C(=O)NCNC1=O | 7.34
24 | NC(Cn1ccc(=O)c(O)c1)C(=O)O (centres undefined) | -0.346
25 | CC(C)NCC(O)COc1ccc(CC(N)=O)cc1 (centres undefined) | 0.669
26 | Oc1cc2c(cc1O)C(c1ccccc1)CNCC2 (centres undefined) | 0.672
27 | CN1CCN(CC(=O)N2c3ccccc3C(=O)Nc3cccnc32)CC1 | 1
28 | COC(=O)Nc1nc2cc(Sc3ccccc3)ccc2[nH]1 | 0.209
29 | N=C(N)NCCCCNC(=N)N | 1.57
30 | CO[C@H]1/C=C/O[C@@]2(C)Oc3c(C)c(O)c4c(O)c(c5c(nc6cc(C)ccn65)c4c3C2=O)NC(=O)/C(C)=C\C=C\[C@H](C)[C@H](O)[C@@H](C)[C@@H](O)[C@@H](C)[C@H](OC(C)=O)[C@@H]1C | -0.875
31 | Clc1cccc(Cl)c1NC1=NCCN1 | -5.2
32 | CC1(C)CC2C1CC[C@]1(C)CCC3C(C(=O)O)CC(=O)O[C@@]32C1 (some centres undefined) [3-HYDROXY-4-(SUCCIN-2-YL)-CARYOLANE delta-LACTONE] | 2.54
33 | CCCNC(=O)NS(=O)(=O)c1ccc(Cl)cc1 | -1.67
34 | CCN(CC)C(C)CN1c2ccccc2Sc2ccccc21 (centres undefined) | -2.63
35 | CC(=O)O[C@]1(C(C)=O)CC[C@H]2[C@@H]3C=C(Cl)C4=CC(=O)CC[C@]4(C)[C@H]3CC[C@@]21C | 2.38
36 | NCCCCCC(=O)O | 0.32
37 | CC(=O)OC/C=C(\C)CC/C=C(\C)CC/C=C(\C)CC/C=C(\C)CC/C=C(\C)CC/C=C(\C)CC/C=C(\C)CC/C=C(\C)CCC=C(C)C | 0.982
38 | CN(C)C(=N)NC(=N)N | 0.799
39 | CC1CC2C3CCC4=CC(=O)C=CC4(C)C3(F)C(O)CC2(C)C1C(=O)CO (centres undefined) | 2.7
40 | CNCCc1ccccn1 | -0.7
41 | C[C@H]1[C@H](C)CC[C@]2(C(=O)O)CC[C@]3(C)C(=CC[C@@H]4[C@@]5(C)CC[C@H](O)C(C)(C)[C@@H]5CC[C@]43C)[C@H]12 | 1.55
42 | CCN(CC)C(=O)c1ccc(O)c(OC)c1 | 2.2
43 | NC1(C(=O)O)CC1 | 2.4
44 | Oc1cc2c(cc1O)C1c3ccc(O)c(O)c3OCC1(O)C2 (centres undefined) | 2.53

Row | SMILES | AlphaScreen HuR-RNA complex signal Z-score
45 | CC(=O)[C@@]1(O)CC[C@H]2[C@@H]3CCC4=CC(=O)CC[C@]4(C)[C@H]3CC[C@@]21C | 0.395
46 | CN(C)CCOC(c1ccccc1)c1ccccc1.Cn1c(=O)c2[nH]c(Cl)nc2n(C)c1=O | -3.39
47 | C[C@@H]1CC[C@@]23CCC4(C)[C@@](C=CC5[C@@]6(C)CC[C@H](O)C(C)(C)C6CC[C@]54C)(OC2=O)C3[C@H]1C (some centres undefined) | -4.93
48 | O=C1NCC2(CCN(CCc3ccccc3)CC2)O1 | 0.733
49 | COc1cc(C)c(C(=O)Oc2cc(C)c(C(=O)O)c(O)c2C)c(OC)c1C | 2.14
50 | CSCC[C@H](NC=O)C(=O)N[C@@H](Cc1ccccc1)C(=O)O (For-Met-Phe-OH) | 1.7
51 | CC(=O)O[C@@H]1C[C@H]2C(C)(C)C(=O)C=C[C@]2(C)[C@H]2CC[C@@]3(C)[C@H](c4ccoc4)OC(=O)[C@H]4O[C@]43[C@@]21C | -0.19
52 | Cc1cc2nc3c(=O)[nH]c(=O)nc-3n(C[C@H](O)[C@H](O)[C@H](O)CO)c2cc1C | 1.5
53 | NC(=O)c1ccc[n+]([C@@H]2O[C@H](COP(=O)([O-])OP(=O)(O)OC[C@H]3O[C@@H](n4cnc5c(N)ncnc54)[C@H](O)[C@@H]3O)[C@@H](O)[C@H]2O)c1 | 3.96
54 | NCC(=O)CCC(=O)O | 1.79
55 | COc1ccc(CN(CCN(C)C)c2ncccn2)cc1 | 0.865
56 | COc1c2ccoc2cc2oc(C)cc(=O)c12 | -4.88
57 | Cc1ccc(C)c(OCCCC(C)(C)C(=O)O)c1 | -1.89
58 | COC(=O)c1c(C)c2c(c(C)c1O)OC(=O)c1c(C)c(Cl)c(O)c(Cl)c1O2 | 2.17
59 | NCCC(=O)c1ccccc1N | 1.99
60 | COc1cc2c(cc1OC)[C@@H]1Cc3ccc(OC)c(OC)c3CN1CC2 | 2.28
61 | O=C(CCCN1CCC(O)(c2ccc(Cl)cc2)CC1)c1ccc(F)cc1 | -1.71
62 | CC1(C)[C@@H](O)CC[C@]2(C)[C@H]3C(=O)C=C4[C@@H]5C[C@@](C)(C(=O)O)CC[C@]5(C)CC[C@@]4(C)[C@]3(C)CC[C@@H]12 | 2.46
63 | CCCCCC(=O)Cc1cc(O)cc(O)c1C(=O)Oc1cc(CC(=O)CCCCC)c(C(=O)O)c(OC)c1 | 2.18
64 | COc1ccc(-c2coc3cc(O)ccc3c2=O)c(O)c1O | 2.08

Structures shown so far with two or more sulfur atoms (2):
Row | SMILES | AlphaScreen HuR-RNA complex signal Z-score
6 | CO/N=C(\C(=O)N[C@@H]1C(=O)N2C(C(=O)O)=C(COC(C)=O)CS[C@H]12)c1csc(N)n1 | -3.62
10 | CC(=O)Nc1nnc(S(N)(=O)=O)s1 | 0.311
